The other results are listed elsewhere or left out.

The chains behind the UniProt entries cited, without tags or fusion partners. Where a name states a change or a piece, a line headed by the entry shows the natural chain unless it says otherwise.
UniProt Q8N122, whole entry, looked up: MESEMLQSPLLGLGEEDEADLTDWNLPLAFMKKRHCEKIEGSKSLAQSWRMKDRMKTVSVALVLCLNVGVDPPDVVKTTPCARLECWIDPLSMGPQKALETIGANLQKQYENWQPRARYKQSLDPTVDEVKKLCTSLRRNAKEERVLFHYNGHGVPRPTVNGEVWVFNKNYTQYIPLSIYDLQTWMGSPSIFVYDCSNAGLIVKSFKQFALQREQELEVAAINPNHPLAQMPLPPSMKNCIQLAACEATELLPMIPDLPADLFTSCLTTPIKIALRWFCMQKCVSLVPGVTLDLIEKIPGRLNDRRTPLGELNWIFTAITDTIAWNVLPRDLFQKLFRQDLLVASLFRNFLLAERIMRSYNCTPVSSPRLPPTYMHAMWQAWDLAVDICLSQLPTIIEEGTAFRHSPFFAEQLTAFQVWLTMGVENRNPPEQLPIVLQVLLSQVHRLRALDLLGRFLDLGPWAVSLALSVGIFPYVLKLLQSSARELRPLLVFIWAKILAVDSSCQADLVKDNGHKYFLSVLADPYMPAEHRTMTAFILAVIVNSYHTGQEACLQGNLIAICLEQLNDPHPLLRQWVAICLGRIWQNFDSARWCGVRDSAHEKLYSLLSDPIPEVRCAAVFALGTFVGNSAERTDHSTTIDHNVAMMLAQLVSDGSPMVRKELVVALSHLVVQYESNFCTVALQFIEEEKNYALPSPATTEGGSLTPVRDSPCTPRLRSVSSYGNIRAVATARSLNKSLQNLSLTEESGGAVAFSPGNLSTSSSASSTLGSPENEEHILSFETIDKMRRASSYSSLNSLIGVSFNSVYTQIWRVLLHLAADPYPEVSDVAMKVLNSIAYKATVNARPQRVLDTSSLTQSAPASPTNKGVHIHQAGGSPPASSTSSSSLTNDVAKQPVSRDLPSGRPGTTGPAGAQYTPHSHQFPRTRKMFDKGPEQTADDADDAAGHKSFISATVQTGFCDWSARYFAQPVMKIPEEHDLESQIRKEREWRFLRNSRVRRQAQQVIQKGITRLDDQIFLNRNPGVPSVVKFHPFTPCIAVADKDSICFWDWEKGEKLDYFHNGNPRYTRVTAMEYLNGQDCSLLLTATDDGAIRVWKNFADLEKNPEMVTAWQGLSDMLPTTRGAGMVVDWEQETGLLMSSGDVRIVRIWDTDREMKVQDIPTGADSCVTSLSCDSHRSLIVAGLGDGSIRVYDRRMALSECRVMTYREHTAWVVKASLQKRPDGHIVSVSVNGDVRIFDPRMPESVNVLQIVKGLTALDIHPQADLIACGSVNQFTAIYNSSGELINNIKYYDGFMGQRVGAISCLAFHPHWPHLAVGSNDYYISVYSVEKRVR
UniProt P51812, whole entry, looked up: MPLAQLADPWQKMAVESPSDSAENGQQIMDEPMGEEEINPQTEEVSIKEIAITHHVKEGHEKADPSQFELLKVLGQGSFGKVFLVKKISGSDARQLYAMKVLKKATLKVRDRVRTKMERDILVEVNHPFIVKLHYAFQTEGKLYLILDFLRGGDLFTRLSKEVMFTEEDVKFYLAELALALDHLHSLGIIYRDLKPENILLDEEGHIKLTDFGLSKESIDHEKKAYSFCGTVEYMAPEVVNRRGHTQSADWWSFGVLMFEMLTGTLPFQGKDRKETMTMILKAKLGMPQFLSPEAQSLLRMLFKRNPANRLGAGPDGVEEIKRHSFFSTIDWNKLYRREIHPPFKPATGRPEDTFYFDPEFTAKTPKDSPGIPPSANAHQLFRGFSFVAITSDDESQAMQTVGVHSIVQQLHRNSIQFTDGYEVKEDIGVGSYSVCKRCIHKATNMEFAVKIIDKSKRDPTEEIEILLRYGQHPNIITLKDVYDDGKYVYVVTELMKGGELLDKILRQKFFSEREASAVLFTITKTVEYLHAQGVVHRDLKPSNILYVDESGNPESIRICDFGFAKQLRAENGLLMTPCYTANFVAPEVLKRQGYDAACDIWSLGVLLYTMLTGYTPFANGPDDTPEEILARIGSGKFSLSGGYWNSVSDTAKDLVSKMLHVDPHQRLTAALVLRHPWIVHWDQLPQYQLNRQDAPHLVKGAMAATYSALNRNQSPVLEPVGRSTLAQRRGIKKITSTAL
UniProt Q969K3: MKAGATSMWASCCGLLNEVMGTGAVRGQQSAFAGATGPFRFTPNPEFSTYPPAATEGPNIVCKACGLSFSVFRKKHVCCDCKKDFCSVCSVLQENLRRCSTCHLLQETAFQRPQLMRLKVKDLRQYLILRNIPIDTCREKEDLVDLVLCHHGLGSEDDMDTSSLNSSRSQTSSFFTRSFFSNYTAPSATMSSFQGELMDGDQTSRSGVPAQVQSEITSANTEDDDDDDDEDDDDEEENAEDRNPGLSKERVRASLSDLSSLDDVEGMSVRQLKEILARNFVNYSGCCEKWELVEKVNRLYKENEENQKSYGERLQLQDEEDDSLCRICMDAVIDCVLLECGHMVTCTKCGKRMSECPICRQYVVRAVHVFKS
UniProt Q15349, whole entry, looked up: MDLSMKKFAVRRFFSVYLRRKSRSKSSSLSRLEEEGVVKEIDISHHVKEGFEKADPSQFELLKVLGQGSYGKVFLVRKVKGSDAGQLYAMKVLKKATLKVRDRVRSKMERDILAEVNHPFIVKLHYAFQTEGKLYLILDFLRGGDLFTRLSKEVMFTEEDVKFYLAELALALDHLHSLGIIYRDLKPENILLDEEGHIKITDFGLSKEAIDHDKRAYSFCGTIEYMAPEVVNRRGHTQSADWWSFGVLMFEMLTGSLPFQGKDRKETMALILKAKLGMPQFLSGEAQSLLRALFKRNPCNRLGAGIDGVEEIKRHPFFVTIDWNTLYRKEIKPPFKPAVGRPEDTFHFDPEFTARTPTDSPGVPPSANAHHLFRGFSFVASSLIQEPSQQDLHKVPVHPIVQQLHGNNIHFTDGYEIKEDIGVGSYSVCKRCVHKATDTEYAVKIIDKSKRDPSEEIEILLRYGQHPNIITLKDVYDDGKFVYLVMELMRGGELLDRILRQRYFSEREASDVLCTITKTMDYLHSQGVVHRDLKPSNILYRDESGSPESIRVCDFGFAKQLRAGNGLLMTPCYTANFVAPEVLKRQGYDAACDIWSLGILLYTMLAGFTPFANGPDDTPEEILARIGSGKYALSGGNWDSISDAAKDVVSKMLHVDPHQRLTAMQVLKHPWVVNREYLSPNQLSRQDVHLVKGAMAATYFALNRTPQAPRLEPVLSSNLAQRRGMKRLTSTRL
UniProt Q9NQG5: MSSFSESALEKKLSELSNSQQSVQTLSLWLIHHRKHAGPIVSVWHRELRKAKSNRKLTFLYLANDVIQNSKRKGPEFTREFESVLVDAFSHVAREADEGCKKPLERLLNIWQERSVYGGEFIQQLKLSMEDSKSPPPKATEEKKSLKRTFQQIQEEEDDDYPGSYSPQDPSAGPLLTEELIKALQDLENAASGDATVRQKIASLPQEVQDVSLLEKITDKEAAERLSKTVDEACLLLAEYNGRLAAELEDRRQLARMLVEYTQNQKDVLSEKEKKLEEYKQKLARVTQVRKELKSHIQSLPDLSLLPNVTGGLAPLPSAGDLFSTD
UniProt Q9BWH6: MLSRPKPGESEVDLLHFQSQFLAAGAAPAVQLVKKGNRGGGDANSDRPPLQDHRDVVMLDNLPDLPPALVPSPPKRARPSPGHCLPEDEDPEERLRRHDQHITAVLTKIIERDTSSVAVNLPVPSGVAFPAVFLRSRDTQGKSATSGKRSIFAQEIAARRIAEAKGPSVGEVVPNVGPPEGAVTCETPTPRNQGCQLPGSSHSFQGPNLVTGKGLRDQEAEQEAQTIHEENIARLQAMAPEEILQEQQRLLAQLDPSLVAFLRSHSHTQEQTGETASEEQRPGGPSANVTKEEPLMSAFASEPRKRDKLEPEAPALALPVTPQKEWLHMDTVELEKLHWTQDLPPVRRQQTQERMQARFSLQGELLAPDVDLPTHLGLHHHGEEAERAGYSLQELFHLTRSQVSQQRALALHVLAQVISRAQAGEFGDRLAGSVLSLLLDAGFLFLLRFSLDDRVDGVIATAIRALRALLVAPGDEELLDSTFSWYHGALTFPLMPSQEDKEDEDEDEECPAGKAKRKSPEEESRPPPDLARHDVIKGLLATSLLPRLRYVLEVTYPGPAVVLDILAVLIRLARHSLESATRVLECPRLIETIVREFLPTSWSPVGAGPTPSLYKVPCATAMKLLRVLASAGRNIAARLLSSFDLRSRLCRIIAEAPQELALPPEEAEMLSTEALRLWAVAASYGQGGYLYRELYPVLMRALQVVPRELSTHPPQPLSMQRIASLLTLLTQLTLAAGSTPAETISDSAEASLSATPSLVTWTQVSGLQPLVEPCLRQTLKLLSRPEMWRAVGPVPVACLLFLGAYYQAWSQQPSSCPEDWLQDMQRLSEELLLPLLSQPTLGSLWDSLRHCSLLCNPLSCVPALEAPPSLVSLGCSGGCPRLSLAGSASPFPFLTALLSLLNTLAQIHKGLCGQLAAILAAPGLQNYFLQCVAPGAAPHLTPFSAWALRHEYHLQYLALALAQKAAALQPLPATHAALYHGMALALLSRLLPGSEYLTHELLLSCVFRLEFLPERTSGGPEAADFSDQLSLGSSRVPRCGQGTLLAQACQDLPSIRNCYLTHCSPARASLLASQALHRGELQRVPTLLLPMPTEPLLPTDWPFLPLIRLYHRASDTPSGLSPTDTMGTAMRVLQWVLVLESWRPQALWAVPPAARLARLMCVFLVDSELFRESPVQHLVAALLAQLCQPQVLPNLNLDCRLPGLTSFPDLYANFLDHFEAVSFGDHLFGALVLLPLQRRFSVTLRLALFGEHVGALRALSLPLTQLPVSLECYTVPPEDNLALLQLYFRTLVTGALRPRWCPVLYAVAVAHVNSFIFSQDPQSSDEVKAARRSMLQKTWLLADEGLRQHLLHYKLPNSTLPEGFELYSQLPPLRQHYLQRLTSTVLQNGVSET

The source of these data is the supplement of paper PMC10849652.

Common to all, as to test: log2 fold change, soluble protein after heating vs DMSO (PISA); higher = thermal stabilisation; K562 cells, 10 uM, 30 min; active = over 0.2 and 3.5 SD of the protein, either way, in both replicates (recomputed)
Compound in one test: Cc1ccc(NC(=O)c2ccc(CN3CC[C@H](N(C)C)C3)c(C(F)(F)F)c2)cc1Nc1nccc(-c2cncnc2)n1 [bafetinib]
The essentials: (§1)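 K562 cells at 2×10^6 cells/mL were given 10 μM compound for 30 min. Aliquots then went through 3 min of heating across 48°C-58°C, were pooled, and were extracted in PBS with 0.5% NP-40 at 4°C, and the supernatant after 21,000xg for 90 min was quantified by TMTpro 16plex LC-MS/MS with channel sums equalised. Thermal stability relative to control samples, from duplicates, is given as log2 fold change.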

Compound in test [1]: Cc1cccc(CC(=O)N2CCc3c2ccc(-c2cn(C)c4ncnc(N)c24)c3F)n1
The gist of the method: as §1

Compound in the next test: Cc1cn(-c2cc(NC(=O)c3ccc(C)c(Nc4nccc(-c5cccnc5)n4)c3)cc(C(F)(F)F)c2)cn1 [nilotinib]
The essentials:
as §1

Compound in test [2]: Cc1nc(Nc2n[nH]c3c2CN(C(=O)N[C@H](CN(C)C)c2ccccc2)C3(C)C)c2sccc2n1
The essentials:
as §1

Compound in another test: Cc1nc(Nc2ncc(C(=O)Nc3c(C)cccc3Cl)s2)cc(N2CCN(CCO)CC2)n1 [dasatinib]
The gist of the method:
as §1

Compound in test [3]: Cc1ncc(-c2ccnc(Nc3ccc(S(C)(=O)=O)cc3)n2)n1C(C)C
The gist of the method:
as §1

Compound in test [4]: Cn1cc(-c2ccc3c(c2)CCN3C(=O)Cc2cccc(C(F)(F)F)c2)c2c(N)ncnc21
The essentials:
as §1

Compound in test [5]: Cn1cc(-c2ccc3nnc(C(F)(F)c4ccc5ncccc5c4)n3n2)cn1
The gist of the method:
as §1

Compound in a further test: Cn1cncc1[C@@](N)(c1ccc(Cl)cc1)c1ccc2c(c1)c(-c1cccc(Cl)c1)cc(=O)n2C [tipifarnib]
The essentials:
as §1

Compound in another test: FC(F)(F)c1ccc(/C=C/c2nc(COc3ccc(CCCCn4ccnn4)cc3)co2)cc1 [mubritinib]
The essentials:
as §1

On to RPTOR (UniProt Q8N122), for which the log2 fold change with bafetinib was inactive: -0.005; in test [1] it was inactive: 0.034; with nilotinib, inactive: -0.085; in test [2], inactive: -0.103; with dasatinib, inactive: -0.103; in [3], inactive: -0.045. Further, the log2 fold change was inactive: -0.107 in test [4], inactive: 0.009 in test [5], inactive: -0.062 with tipifarnib and inactive: 0.033 with mubritinib.

As for RPS6KA3 (UniProt P51812), the log2 fold change with bafetinib is inactive: -0.065; in test [1], inactive: 0.046; in the test with nilotinib, inactive: 0.035; in [2], active: -0.798; with dasatinib it was inactive: -0.195; in test [3], inactive: -0.019. The log2 fold change in test [4] is inactive: -0.022; in test [5], inactive: 0.031; with tipifarnib, inactive: -0.028; with mubritinib, inactive: 0.02.

For RPS29 (UniProt P62273), the log2 fold change with bafetinib is inactive: 0.257; in test [1], inactive: -0.047; in the test with nilotinib, inactive: 0.076; in [2], inactive: 0.163; with dasatinib it was inactive: 0.129; in test [3] it was inactive: -0.107. Besides, the log2 fold change was inactive: -0.164 in test [4], inactive: 0.083 in test [5], inactive: 0.04 with tipifarnib and inactive: -0.202 in the test with mubritinib.

As for RPS3A (UniProt P61247), the log2 fold change was inactive: 0.243 with bafetinib; inactive: -0.031 in [1]; inactive: 0 in the test with nilotinib; inactive: 0.201 in test [2]; inactive: 0.099 with dasatinib; inactive: -0.033 in test [3]. In addition, the log2 fold change was inactive: -0.127 in test [4], inactive: -0.045 in test [5], inactive: 0.096 with tipifarnib and inactive: -0.058 with mubritinib.

As to RNF34 isoform 2 (UniProt Q969K3), the log2 fold change is inactive: 0.037 in the test with bafetinib; inactive: -0.014 in test [1]; inactive: -0.037 with nilotinib; inactive: -0.001 in [2]; inactive: 0.124 in the test with dasatinib; inactive: 0.015 in [3]. For the same target, the log2 fold change in [4] was inactive: -0.077; in test [5], inactive: -0.061; with tipifarnib it was inactive: -0.005; with mubritinib, inactive: 0.089.

As to RPS6KA2 isoform 2 (UniProt Q15349), the log2 fold change is inactive: -0.112 with bafetinib; inactive: 0.15 in test [1]; inactive: 0.008 in the test with nilotinib; active: -0.571 in [2]; inactive: -0.228 with dasatinib; inactive: -0.013 in test [3]. Moreover, the log2 fold change in test [4] is inactive: 0.001; in test [5], inactive: 0.021; in the test with tipifarnib it was inactive: -0.069; with mubritinib it was inactive: 0.085.

Consider RPL26 (UniProt P61254), for which the log2 fold change with bafetinib was inactive: 0.442; in test [1], inactive: 0.049; in the test with nilotinib, inactive: 0.108; in test [2], inactive: 0.062; with dasatinib, inactive: 0.177; in test [3], inactive: -0.019. Further, the log2 fold change in test [4] was inactive: -0.294; in test [5] it was inactive: -0.364; in the test with tipifarnib, inactive: 0.235; with mubritinib, inactive: -0.258.

As for RPS5 (UniProt P46782), the log2 fold change in the test with bafetinib was inactive: 0.2; in test [1], inactive: 0.002; with nilotinib it was inactive: 0.046; in test [2], inactive: 0.178; in the test with dasatinib it was inactive: 0.069; in test [3], inactive: -0.035. Moreover, the log2 fold change is inactive: -0.122 in test [4], inactive: -0.08 in [5], inactive: 0.042 with tipifarnib and inactive: 0.007 with mubritinib.

With RPL10A (UniProt P62906), the log2 fold change with bafetinib is inactive: 0.611; in [1] it was inactive: 0.036; with nilotinib it was inactive: 0.007; in test [2], inactive: 0.321; with dasatinib it was inactive: 0.318; in test [3], inactive: -0.022. For the same target, the log2 fold change was inactive: -0.571 in test [4], inactive: -0.219 in [5], inactive: 0.414 in the test with tipifarnib and inactive: -0.342 with mubritinib.

As to RPL24 (UniProt P83731), the log2 fold change in the test with bafetinib was inactive: 0.363; in [1], inactive: 0.021; in the test with nilotinib, inactive: 0.056; in test [2], inactive: 0.158; in the test with dasatinib it was inactive: 0.197; in test [3], inactive: -0.026. The log2 fold change was inactive: -0.399 in [4], inactive: -0.161 in test [5], inactive: 0.176 with tipifarnib and inactive: -0.194 with mubritinib.

Turning to RPRD1B (UniProt Q9NQG5), the log2 fold change is inactive: -0.036 with bafetinib; inactive: 0.04 in test [1]; inactive: -0.036 with nilotinib; inactive: -0.072 in test [2]; inactive: -0.099 in the test with dasatinib; inactive: -0.024 in test [3]. In addition, the log2 fold change in test [4] is inactive: -0.021; in test [5], inactive: -0.035; in the test with tipifarnib, inactive: -0.039; in the test with mubritinib, inactive: 0.032.

RPS24 isoform 4 (UniProt P62847): the log2 fold change with bafetinib is inactive: 0.269; in test [1], inactive: 0; with nilotinib, inactive: 0.046; in test [2], inactive: 0.191; in the test with dasatinib, inactive: 0.134; in test [3], inactive: -0.02. Also, the log2 fold change is inactive: -0.234 in test [4], inactive: -0.055 in [5], inactive: 0.127 with tipifarnib and inactive: -0.105 with mubritinib.

Regarding RPL13A (UniProt P40429), the log2 fold change was inactive: 0.597 in the test with bafetinib; inactive: 0.018 in test [1]; inactive: 0.012 in the test with nilotinib; inactive: 0.273 in test [2]; inactive: 0.293 with dasatinib; inactive: -0.04 in test [3]. Moreover, the log2 fold change in test [4] is inactive: -0.576; in [5] it was inactive: -0.296; with tipifarnib, inactive: 0.345; with mubritinib, inactive: -0.35.

On to RPS11 (UniProt P62280), for which the log2 fold change with bafetinib is inactive: 0.386; in test [1], inactive: 0; with nilotinib, inactive: -0.003; in test [2], inactive: 0.254; in the test with dasatinib, inactive: 0.142; in test [3] it was inactive: -0.054. Besides, the log2 fold change in test [4] is inactive: -0.348; in test [5] it was inactive: -0.147; with tipifarnib it was inactive: 0.23; with mubritinib, inactive: -0.185.

As to RPAP1 (UniProt Q9BWH6), the log2 fold change with bafetinib is inactive: -0.036; in [1], inactive: 0; with nilotinib, inactive: -0.042; in test [2], inactive: -0.046; with dasatinib, inactive: -0.067; in test [3], inactive: 0.007. Also, the log2 fold change in [4] was inactive: 0.002; in [5] it was inactive: -0.082; with tipifarnib, inactive: -0.011; in the test with mubritinib, inactive: 0.098.
